Test results: article PMC7957188, “An antitumor peptide RS17‐targeted CD47, design, synthesis, and antitumor activity” (Cancer Medicine, 2021)
These are yes or no findings as the source states them, for the method shown. Some entries that bind do so weakly or less than the wild type.

By UniProt entry, the sequences of proteins in these tests, tags left out. Residues count along the entry.
UniProt Q08722, residues 19-323: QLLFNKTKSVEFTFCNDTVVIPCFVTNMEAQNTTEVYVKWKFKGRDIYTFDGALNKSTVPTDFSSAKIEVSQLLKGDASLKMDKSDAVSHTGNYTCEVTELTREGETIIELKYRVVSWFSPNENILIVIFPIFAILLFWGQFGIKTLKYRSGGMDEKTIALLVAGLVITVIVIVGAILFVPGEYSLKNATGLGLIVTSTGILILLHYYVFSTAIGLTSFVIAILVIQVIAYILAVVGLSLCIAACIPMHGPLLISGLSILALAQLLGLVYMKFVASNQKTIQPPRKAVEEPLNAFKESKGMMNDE

Target: CD47 on SCC-13 and HepG2 tumor cells (human (endogenous in SCC-13 and HepG2)) (UniProt Q08722)
Assay: flow cytometry on cells; SCC-13 and HepG2 cells (3 x 10^6 cells/ml, 100 μl) incubated with 1 μM FITC-RS17 for 1 h at 37℃, 5% CO2, in dark; washed with PBS; only the binder purified

## RRYKQDGGWSHWSPWSS (FITC coupled through the Acp active group to RS17) [FITC-RS17 peptide]
  binding: binds
